# PubChem BioAssay AID1508600 (Functional Genomics Laboratory (NCATS/FGL), 2020)
# In all, about 53,000 sequences went through this assay and about 3,700 (7%) were called active.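 Rule for the calls: active = gene knockdowns whose robust z-score for IL-1 alpha signal is at least 2 or at most -2, so actives lie on both sides; inactive = the rest.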 Some of the results follow.
# Assay: Components of the Cytosolic LPS Sensing Pathway: Gene Identification via Genome-wide siRNA Screen;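 note: robust z of the log signal after scaling to non-targeting control siRNA wells of the plate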
# Settings: RAW264.7 macrophages, IL-1a HTRF, actives lie on both sides, screened at 100 nM (by protocol), cells primed 5 h with Pam3CSK4 first
# Procedure, shortened: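 RAW264.7; siRNA 100 nM final, RNAiMAX, 48h 37 degrees C; Pam3CSK4 5 h; LipidA + TransIT-TKO 24 h; IL-1a HTRF; CellTiter-Glo viability; robust z vs negative-control median.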
row,Sequence,z-score
1,UGAUUAUUGACCUGUUAGUTT against Olfr1193,inactive: 0.926
2,GGAAAGGAACAGAAAAGAATT against Tenm2,inactive: -0.295
3,GGACCUGCUCUUGGUCAUUTT against Fam118a,inactive: 0.461
4,GGGACUGAUCGGUACCGAATT against Igsf8,inactive: 0.531
5,GUCUUCAACUCAGUUCAGUTT against Wap,inactive: -0.433
6,GGAUGGUCAAACACGUCACTT against Pla2g2c,inactive: 0.157
7,GGAGUUGCUGUACAACAAGTT against Ndufs8,inactive: -0.576
8,GGAUGAAUACAGUGAAUAUTT against Ppil3,inactive: -0.429
9,GGUGGAAAUCGAUAAAACUTT against Slc15a1,inactive: -0.573
10,CCGUGUGAAUCCCUGCAUUTT against Aldoa,active: -2.85
11,GGAAACCUUUUCAUUAACATT against Il23r,inactive: 0.138
12,UCAUAGCAGAGAUUAGAAUTT against Hsfy2,inactive: -0.951
13,GGUGUGUUACAACCAUUUGTT against Hsd17b6,inactive: -0.392
14,GGAAAUGAAGGAAAAGGAATT against Ccny,inactive: -1.51
15,GGUAUGACACAGUCAUACUTT against Vmn1r26,inactive: 0.596
16,GGCAAAGGAUCCAAGUUUGTT against Tmem123,active: 2.81
17,GCACAUAUGUCUUUCCCAGTT against Fbxl7,inactive: -0.931
18,GGAGUUGAAGAGAAGCAGGTT against Tac4,inactive: -1.65
19,GGUCUAGCUCACAUCACACTT against C2,inactive: -1.16
20,CCGAAUCUCUCACGUGCCATT against Rtn4r,inactive: -0.474
21,CGAAAGGUCAAAUUAACAGTT against Serpinb5,inactive: 1.23
22,GGGAACAAAAUCCAUGACGTT against Tdo2,inactive: -0.468

row,Sequence,z-score
1,GGCUCACAUUGUAACUUAGTT against Krtap5-2,inactive: 1.41
2,CCAUUAUAACUGUAUCUGATT against Gm609,inactive: -1.55
3,GGCCUUUUCAACUUGUGGGTT against Olfr1048,inactive: -1.83
4,GGCUUAGGAAUCUAGGACUTT against D830044D21Rik,inactive: -0.404
5,CCAUAUAUUAUGGACCUUATT against Hepacam2,inactive: -0.576
6,GGUACUUCCUACCUAACAGTT against Nipa1,inactive: -0.235
7,GGAACUCAGCUACAGUGAATT against Mettl17,inactive: 0.0663
8,CCUAGUGACUUUAAUGGGATT against Mrgprf,inactive: 0.182
9,CGACCUAAUGACAUUAUCATT against Egln3,inactive: 0.164
10,GGCAUCUCCAUCAAUACAGTT against Pdcl,inactive: 1.8
11,GCACCUGAGAAGCUCAUUGTT against Chil5,inactive: -1.96
12,CGGAAAUCAACAUUGCGUUTT against Stxbp1,inactive: 0.394
13,CCAGUUUAGUGGCUCUUCCTT against Lrrc23,inactive: 0.411
14,GGCUCACAAUGAAAAAGGUTT against Zfp668,inactive: -1.02
15,GCAGCACAUAGAAACGUGUTT against Fnbp1,inactive: -0.0942
16,GGUGAGCCUGAGAUUUAAATT against Tpsb2,inactive: 0.376
17,GGGAAUUGCCUCAGCUAAGTT against Men1,active: 2.95
18,GCGAUUGGCAGAUUGCUACTT against Tmem47,inactive: 1.01
19,GGGCCUGAUUUCCUAUGCUTT against Pglyrp4,inactive: 0.658
20,GGGAGAGUGUUUGUUCAUUTT against Dusp1,inactive: -0.082
21,CCACCAUUUAUAUUUGGUUTT against Slc35g1,inactive: -0.298
22,GCAAACUAGAUAUCUAGGGTT against Lmx1a,inactive: 0.385

row,Sequence,z-score
1,GGAACAUCCAAAGCUCCACTT against Trim30d,inactive: 1.02
2,GGGACUUUGGGCUAAAUAGTT against Tspan1,inactive: -1.32
3,GGAGGACCAGUGCAUCUUUTT against Gpr173,inactive: -0.0215
4,GGUUCCUAGUUACAACAUCTT against Pcdhga12,inactive: 1.1
5,GCGUAUUACACCCUUGGAATT against Terf1,inactive: -0.462
6,CCAGACUUGGGUGAAUGAATT against Olfr450,inactive: 0.129
7,CCUGCCUUUGUAAAAGCCGTT against Bid,inactive: 0.283
8,GCCUGUUUGGUAUUCUUCCTT against Olfr832,inactive: -1.19
9,CCAUCCCGUUCACUAGAGATT against Mypn,inactive: -1.73
10,GCACCACUAAUCGAGUUGGTT against Pigf,inactive: -0.265
11,GGACUCUGGAACAAGUCACTT against Slc2a8,inactive: -0.599
12,CCCUGGUAUUGGUUUCACATT against Tlcd1,inactive: -0.738
13,GCAUAUUACACAGCACUAGTT against Itgbl1,inactive: -0.802
14,CCUGAUAAACUCUAGUGUGTT against Six5,inactive: -1.96
15,GGAGGAAGACGAGUUCAUUTT against Rassf2,inactive: -0.576
16,GCGAUUUCUGGACAGCAAUTT against Cyp2r1,inactive: 0.207
17,GCAGAAAAACGUGAACAUUTT against Ces3b,inactive: 0.0397
18,CCUAGCAGUACUGUACGGUTT against Klc1,inactive: 1.68
19,GGAUGGAGCUACUGAAAUUTT against Dera,inactive: 0.39
20,UGUUGGUGGGCCUUAUAUUTT against Olfr1153,inactive: -1.02
21,GCAUGAUGCUGAGACAAGATT against Lce3c,inactive: -1.69
22,GGCUAAGCUAUACCACCAUTT against Cckbr,inactive: -1.32

# Copied from the listing for reference:
row,Sequence,z-score
11,GCACCUGAGAAGCUCAUUGTT against Chil5,inactive: -1.96
12,CGGAAAUCAACAUUGCGUUTT against Stxbp1,inactive: 0.394
13,CCAGUUUAGUGGCUCUUCCTT against Lrrc23,inactive: 0.411

# Further results follow.

row,Sequence,z-score
1,GCUGUGUUAGGAUUGUCCATT against Olfr553,inactive: 0.252
2,CGUAGGUUCUAACGAUUCCTT against C730034F03Rik,inactive: -0.688
3,GGGUUAGCGCAUAAAGACATT against Fv4,inactive: 0.0276
4,CCAGGUUCUGACCACCUACTT against Htr3a,inactive: 0.819
5,CCCAAAAAGUUCAAACAAGTT against Retreg1,inactive: -0.872
6,GCACUUGUGGAUCAAUACCTT against Efhd1,inactive: 0.179
7,CCAUUUCUUAGUGGGACUATT against Ogdh,inactive: 1.26
8,CGGAUUCAGACCAAUUGGUTT against Zscan22,inactive: 0.549
9,GGACAAUGAGAUUCUUCUCTT against Mptx1,inactive: -1.58
10,GGAACUGGCUUCAAACCUUTT against Plac9a,inactive: -1.09
11,GGGCAAUGAAUGACAUUGGTT against Gabrd,inactive: -0.368
12,GCUGAUGUUUGUUAUGUACTT against Rgmb,inactive: 0.365
13,GGGUGAACUCGGACAUUGATT against Spata19,inactive: -0.754
14,GGUGACCUACAAUCUCAAATT against Adam2,inactive: 0.987
15,GGCAAAGUUUGGGAUUACATT against Ntng1,inactive: 1.17
16,GGAAGAAGAUCACCAUCAUTT against Ifi204,active: -2.64
17,GGUGGUAAUUGGUGUGGCATT against Slc9b2,inactive: -0.188
18,CGGUAGAGUCAGCAUUUGATT against Sez6,inactive: -0.231
19,GCUACAGCCACACCAAAGUTT against Nkx2-9,inactive: -1.33
20,GGCUACUCAACCGAUAGUGTT against Mis18a,inactive: 0.242
21,GGUACCCACACAAUUUUUATT against Alg5,inactive: -0.046
22,CGAUCGGCGACCUUUUAGATT against Irak3,inactive: -0.527

# Two entries from above, with bars between the fields:
row | Sequence | z-score
10 | GGAACUGGCUUCAAACCUUTT against Plac9a | inactive: -1.09
11 | GGGCAAUGAAUGACAUUGGTT against Gabrd | inactive: -0.368

# (listing goes on)

row,Sequence,z-score
1,GGUCAAUGCUUACUAUUCATT against Kel,inactive: 1.6
2,CGUGGUUAGACCAAAUAUUTT against Mrps6,inactive: -0.194
3,GGGUAACAUCUUCAGAUUUTT against Hcar2,inactive: 0.495
4,GGAGUGUGACAUUGGUGAUTT against Dusp22,inactive: -0.0356
5,GGUAAAAGUAGAAGCUAUUTT against Zbtb3,inactive: -1.22
6,CCAUGUCAAUAUAGCUGUCTT against Igfbpl1,active: 2.25
7,GGAAAGUCAUUUCCCUGUUTT against Sprr2h,inactive: -0.986
8,GGAGUUUCAACUCUUCUUCTT against Necab2,inactive: -0.576
9,CCUCAGAAUUCGAAUGAACTT against Atad5,inactive: 0.224
10,GGUCUUUCUUCGAGGAGUCTT against Ccdc33,inactive: -1.03
11,GGCAGAAUUCUUGAGAGAUTT against Kcnk10,inactive: -1.3
12,GGACCAUCCCUUCUUCUAUTT against Coq8a,inactive: -0.428
13,GGCUUUCCUUACCAUAUAUTT against Trim7,inactive: -0.675
14,GCUGGAUACUAAAUAUCCUTT against Dctd,inactive: -0.136
15,GGGAUUUCAUCGUGCAACGTT against Ndufa2,inactive: -0.553
16,GGUGGAAGCAAGAGAAAAUTT against Tnp1,active: 2.03
17,GGCACUAAUGUAAAAACCATT against Bbs7,inactive: -1.58
18,CGGAACACUUUAGAAUCUATT against Ccdc92b,inactive: 0.573
19,CCUGGAUCGGAACCAAAUGTT against Ccl2,inactive: 1.16
